Results as given in paper doi:10.1101/2022.07.12.499798.
These are yes or no findings as the source states them, for the method shown. For some of these results: In cells and extracts the contact can be indirect. Some entries that bind do so weakly or less than the wild type.

Chains of the proteins cited; added tags and fusions are not shown.
UniProt Q336M2: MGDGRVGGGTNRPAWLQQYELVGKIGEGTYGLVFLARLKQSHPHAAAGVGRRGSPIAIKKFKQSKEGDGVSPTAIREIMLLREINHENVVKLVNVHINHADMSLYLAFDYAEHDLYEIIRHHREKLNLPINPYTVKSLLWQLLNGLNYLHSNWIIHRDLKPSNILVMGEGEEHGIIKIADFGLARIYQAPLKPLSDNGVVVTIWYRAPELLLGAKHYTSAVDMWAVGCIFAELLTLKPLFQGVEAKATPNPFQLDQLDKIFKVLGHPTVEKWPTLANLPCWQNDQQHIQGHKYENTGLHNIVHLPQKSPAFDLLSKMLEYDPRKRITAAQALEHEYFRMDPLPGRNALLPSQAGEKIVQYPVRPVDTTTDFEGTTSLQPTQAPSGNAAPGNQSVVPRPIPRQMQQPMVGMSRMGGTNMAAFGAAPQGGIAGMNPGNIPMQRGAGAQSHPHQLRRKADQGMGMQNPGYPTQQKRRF
UniProt P29618: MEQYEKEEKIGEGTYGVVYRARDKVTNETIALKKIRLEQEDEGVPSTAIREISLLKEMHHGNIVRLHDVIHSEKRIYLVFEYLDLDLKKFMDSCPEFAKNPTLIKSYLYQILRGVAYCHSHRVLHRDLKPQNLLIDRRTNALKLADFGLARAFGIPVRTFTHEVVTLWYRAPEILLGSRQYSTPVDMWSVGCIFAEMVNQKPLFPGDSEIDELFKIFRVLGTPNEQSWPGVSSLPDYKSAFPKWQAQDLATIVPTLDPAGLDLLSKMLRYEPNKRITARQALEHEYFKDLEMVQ
UniProt Q8L4P8: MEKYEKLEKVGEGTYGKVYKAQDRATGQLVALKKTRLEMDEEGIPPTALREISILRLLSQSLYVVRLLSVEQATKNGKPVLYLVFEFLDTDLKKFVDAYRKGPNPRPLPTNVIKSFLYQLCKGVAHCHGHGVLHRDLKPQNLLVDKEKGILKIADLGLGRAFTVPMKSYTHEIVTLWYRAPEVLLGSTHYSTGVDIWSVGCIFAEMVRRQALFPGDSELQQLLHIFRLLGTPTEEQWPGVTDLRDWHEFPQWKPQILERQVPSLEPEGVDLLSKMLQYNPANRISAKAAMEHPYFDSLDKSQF
UniProt P29619: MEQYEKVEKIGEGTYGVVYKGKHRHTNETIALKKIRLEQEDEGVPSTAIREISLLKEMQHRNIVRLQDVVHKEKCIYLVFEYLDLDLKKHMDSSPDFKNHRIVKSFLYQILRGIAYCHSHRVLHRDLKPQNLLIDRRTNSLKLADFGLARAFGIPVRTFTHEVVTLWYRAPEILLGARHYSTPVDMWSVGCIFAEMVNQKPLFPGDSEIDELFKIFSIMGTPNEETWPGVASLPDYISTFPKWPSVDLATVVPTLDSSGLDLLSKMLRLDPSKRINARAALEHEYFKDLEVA
UniProt Q6Z6G5: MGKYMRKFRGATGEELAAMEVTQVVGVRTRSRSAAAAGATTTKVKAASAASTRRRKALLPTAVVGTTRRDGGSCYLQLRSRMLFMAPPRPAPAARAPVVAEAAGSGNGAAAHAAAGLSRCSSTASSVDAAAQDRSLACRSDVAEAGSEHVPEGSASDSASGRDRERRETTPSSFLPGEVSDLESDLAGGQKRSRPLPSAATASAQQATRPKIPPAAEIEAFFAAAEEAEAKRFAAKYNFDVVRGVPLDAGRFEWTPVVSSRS
UniProt Q75I54: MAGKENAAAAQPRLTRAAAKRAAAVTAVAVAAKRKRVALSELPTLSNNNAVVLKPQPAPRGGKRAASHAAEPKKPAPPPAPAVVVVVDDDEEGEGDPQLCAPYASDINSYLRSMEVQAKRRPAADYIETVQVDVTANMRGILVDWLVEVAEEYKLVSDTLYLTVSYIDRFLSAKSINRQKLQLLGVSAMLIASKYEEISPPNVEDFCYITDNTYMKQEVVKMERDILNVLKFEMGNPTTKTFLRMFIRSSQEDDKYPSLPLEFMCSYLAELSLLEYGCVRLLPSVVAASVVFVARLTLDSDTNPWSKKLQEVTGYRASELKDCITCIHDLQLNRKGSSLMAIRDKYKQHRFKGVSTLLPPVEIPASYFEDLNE
UniProt Q0JIF2: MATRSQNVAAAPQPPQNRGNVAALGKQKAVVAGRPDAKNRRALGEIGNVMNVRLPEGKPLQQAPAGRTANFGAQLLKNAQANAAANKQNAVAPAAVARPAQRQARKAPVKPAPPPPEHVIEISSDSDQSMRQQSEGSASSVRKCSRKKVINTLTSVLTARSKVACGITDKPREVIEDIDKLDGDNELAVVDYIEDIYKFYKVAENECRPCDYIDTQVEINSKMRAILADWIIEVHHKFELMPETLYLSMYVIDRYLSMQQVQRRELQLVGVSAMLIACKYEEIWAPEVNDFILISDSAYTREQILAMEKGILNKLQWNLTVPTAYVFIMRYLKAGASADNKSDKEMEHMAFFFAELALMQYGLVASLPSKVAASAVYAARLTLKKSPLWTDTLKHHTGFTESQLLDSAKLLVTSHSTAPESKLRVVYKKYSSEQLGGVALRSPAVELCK
UniProt Q0D9C7: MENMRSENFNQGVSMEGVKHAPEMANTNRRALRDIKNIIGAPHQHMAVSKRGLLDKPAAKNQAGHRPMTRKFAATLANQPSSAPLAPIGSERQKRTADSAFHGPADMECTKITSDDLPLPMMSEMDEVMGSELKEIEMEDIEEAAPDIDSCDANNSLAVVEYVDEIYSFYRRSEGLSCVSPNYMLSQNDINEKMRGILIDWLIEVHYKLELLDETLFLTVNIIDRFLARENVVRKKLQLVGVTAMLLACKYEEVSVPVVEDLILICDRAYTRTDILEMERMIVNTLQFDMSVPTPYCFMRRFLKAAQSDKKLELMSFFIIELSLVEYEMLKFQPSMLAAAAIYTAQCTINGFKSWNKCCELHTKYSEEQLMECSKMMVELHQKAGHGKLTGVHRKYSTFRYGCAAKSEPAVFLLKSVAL
UniProt Q2QQS5: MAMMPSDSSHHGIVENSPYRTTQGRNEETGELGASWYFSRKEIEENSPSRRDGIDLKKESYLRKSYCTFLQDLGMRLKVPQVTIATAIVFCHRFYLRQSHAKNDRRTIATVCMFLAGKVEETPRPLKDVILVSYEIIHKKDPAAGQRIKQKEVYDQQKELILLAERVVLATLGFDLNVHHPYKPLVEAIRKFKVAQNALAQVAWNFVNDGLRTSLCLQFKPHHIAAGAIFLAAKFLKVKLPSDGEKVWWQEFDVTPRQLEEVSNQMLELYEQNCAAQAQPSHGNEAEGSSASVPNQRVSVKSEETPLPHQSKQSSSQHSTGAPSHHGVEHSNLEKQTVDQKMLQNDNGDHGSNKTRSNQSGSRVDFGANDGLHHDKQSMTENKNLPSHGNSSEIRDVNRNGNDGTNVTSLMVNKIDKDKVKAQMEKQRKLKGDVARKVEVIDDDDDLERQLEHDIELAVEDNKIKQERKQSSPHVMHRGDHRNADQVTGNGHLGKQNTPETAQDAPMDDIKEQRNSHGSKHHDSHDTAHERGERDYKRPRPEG

Assays:
[1] = target: KRP5m, C-terminally truncated KRP5 (rice (Oryza sativa)) (UniProt Q283L0); test: two-hybrid
[2] = target: T1, KRP4 (Kip-Related Protein 4), yeast construct (rice (Oryza sativa)) (UniProt Q7XDH8); test: two-hybrid
T1 sequence: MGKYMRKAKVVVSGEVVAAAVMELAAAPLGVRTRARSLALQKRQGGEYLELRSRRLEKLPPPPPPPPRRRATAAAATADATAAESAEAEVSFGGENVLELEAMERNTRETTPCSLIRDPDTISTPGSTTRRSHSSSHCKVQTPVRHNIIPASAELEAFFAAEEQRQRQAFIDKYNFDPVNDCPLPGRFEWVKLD

[3] = target: KRP4m, C-terminally truncated KRP4 (rice (Oryza sativa)) (UniProt Q7XDH8); test: two-hybrid
[4] = target: T2, KRP5 (Kip-Related Protein 5), yeast construct (rice (Oryza sativa)) (UniProt Q283L0); test: two-hybrid
T2 sequence: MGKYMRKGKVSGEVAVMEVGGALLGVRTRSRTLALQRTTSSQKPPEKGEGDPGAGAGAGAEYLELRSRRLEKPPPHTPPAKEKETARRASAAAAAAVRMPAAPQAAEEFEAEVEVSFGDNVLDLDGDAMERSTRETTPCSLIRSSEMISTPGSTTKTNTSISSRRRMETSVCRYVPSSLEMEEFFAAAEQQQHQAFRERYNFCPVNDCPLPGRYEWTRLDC

[5] = target: T3, KRP5-nEYFP (rice (Oryza sativa)) (UniProt Q283L0); test: split reporter
T3 sequence: T2 sequence

[6] = target: T4, KRP4-nEYFP (rice (Oryza sativa)) (UniProt Q7XDH8); test: split reporter
T4 sequence: T1 sequence

[7] = target: T1, KRP4 (Kip-Related Protein 4), yeast construct (rice (Oryza sativa)); test: co-IP
[8] = target: T2, KRP5 (Kip-Related Protein 5), yeast construct (rice (Oryza sativa)); test: co-IP
[9] = target: CDKE1, yeast two-hybrid construct (rice (Oryza sativa)) (UniProt Q336M2); test: two-hybrid
[10] = target: CDKA1;1, yeast two-hybrid construct (rice (Oryza sativa)) (UniProt P29618); test: two-hybrid
[11] = target: CDKB1;1, yeast construct (rice (Oryza sativa)) (UniProt Q8L4P8); test: two-hybrid
[12] = target: T5, CDKB2;1, yeast construct (rice (Oryza sativa)) (UniProt Q0J4I1); test: two-hybrid
T5 sequence: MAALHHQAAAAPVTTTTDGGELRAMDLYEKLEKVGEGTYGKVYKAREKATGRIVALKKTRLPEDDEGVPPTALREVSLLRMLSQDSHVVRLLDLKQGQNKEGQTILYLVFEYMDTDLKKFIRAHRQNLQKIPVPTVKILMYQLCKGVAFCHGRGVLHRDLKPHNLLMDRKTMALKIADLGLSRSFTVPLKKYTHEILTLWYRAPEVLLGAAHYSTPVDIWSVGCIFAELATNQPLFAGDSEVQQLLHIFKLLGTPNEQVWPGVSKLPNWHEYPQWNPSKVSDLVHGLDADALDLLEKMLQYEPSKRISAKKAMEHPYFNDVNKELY

[13] = target: CDKA2;1, yeast two-hybrid construct (rice (Oryza sativa)) (UniProt P29619); test: two-hybrid
[14] = target: KRP1, yeast two-hybrid bait (rice (Oryza sativa)) (UniProt Q6Z6G5); test: two-hybrid

Substance | binding [1] | binding [2] | binding [3] | binding [4] | binding [9] | binding [10] | binding [11] | binding [12] | other results
CDKA1;1, yeast two-hybrid construct (from UniProt P29618 1-294) (enzyme) | no binding | binds | no binding | binds |  |  |  |  | 
CDKA2;1, yeast two-hybrid construct (from UniProt P29619 1-292) (enzyme) | no binding | binds | no binding | binds |  |  |  |  | 
CDKB1-cEYFP (from UniProt Q8L4P8 1-303) (enzyme) |  |  |  |  |  |  |  |  | binding [5]: binds; binding [6]: binds
CDKB1;1, yeast construct (from UniProt Q8L4P8 1-303) (enzyme) | no binding | binds | no binding | binds |  |  |  |  | binding [7]: binds; binding [8]: binds
CDKE1, yeast two-hybrid construct (from UniProt Q336M2 1-475) (enzyme) | no binding | no binding | no binding | binds |  |  |  |  | 
CYCA3;1, yeast two-hybrid prey (from UniProt Q75I54 1-373) |  |  |  |  | no binding | no binding | no binding | binds | 
CYCB1;1, yeast two-hybrid prey (from UniProt Q0JIF2 1-449) |  |  |  |  | no binding | no binding | no binding | binds | 
CYCB2;2, yeast two-hybrid prey (from UniProt Q0D9C7 1-419) |  |  |  |  | no binding | no binding | no binding | binds | binding [13]: binds
CYCT1;4, yeast two-hybrid prey (from UniProt Q2QQS5 1-543) |  | no binding |  | binds weakly | no binding | no binding | no binding |  | binding [13]: binds; binding [14]: no binding
